Results taken from patent US20110039756A1 (basisnote AG, priority 2007, published 2011).
For part of these data: Where a sequence shows no end group, the ends are not given.

Tests used:
[1] = peptide synthesis; conditions: whole synthesis, HPLC
[2] = Blind odour test of peptide solutions by twenty participants; conditions: for Odour Note (N = 20): 2.125 mg peptide in 6 ml deionised water, blind test on 150 mm filter paper, rated by 20 participants; for Consistency (N = 20): average consistency with which the individual solution could be recognized, 2.125 mg in 6 ml deionised water, 20 participants

Sequence: EYPDRIMNTF (ligand of HLA-A*24 (A24))
- purity (crude or final not stated) [1]: 77.8%

Sequence: DEYIYRHFE
- purity (crude or final not stated) [1]: 78.3%

Sequence: IAFNSGMEPGVVAEKV (ligand of HLA-DPB1*0401) [SEQ ID NO: 13]
- Odour Note (N = 20) [2]: Mossy
- Consistency (N = 20) [2]: 1

Sequence: IAFNSGMEPGVVAEKV (ligand of HLA-DPB1*0401)
- purity (crude or final not stated) [1]: 88.2%

Sequence: EYPDRIMNTF (ligand of HLA-A*24 (A24)) [SEQ ID NO: 3]
- Odour Note (N = 20) [2]: Acidic, Rubber
- Consistency (N = 20) [2]: 0.8

Sequence: DEYIYRHFE [SEQ ID NO: 626]
- Odour Note (N = 20) [2]: Mild, Acidic
- Consistency (N = 20) [2]: 0.6
